Results from US20180078656A1 (priority 2015, published 2018).

Assay: general procedure: Fmoc solid-phase peptide synthesis; Barlos resin; TBTU/HOBt·H2O/DIPEA
Details: for conjugation yield: conjugation step; for isolated mass / isolated yield: whole synthesis; for isolated yield: scale of the general procedure 1.0 g resin

Substance: Azide-TEG-Val-Cit-Gly-Pro-Cryptophycin-55-glycinate
- conjugation yield: 75%

Substance: Maleimide-PEG-Val-Cit-Pro-Gly-Cryptophycin-55-glycinate
- conjugation yield: 60%

Substance: Maleimide-PEG-Val-Cit-Pro-Gly
- isolated mass: 0.61 g
- isolated yield: 70%

Substance: Azide-TEG-Val-Cit-Gly-Pro-OH
- isolated mass: 0.05 g
- isolated yield: 70%
